{"sequences": {"note": "By UniProt entry, the sequences of proteins in these tests, tags left out.", "UniProt P10635, whole entry, looked up": "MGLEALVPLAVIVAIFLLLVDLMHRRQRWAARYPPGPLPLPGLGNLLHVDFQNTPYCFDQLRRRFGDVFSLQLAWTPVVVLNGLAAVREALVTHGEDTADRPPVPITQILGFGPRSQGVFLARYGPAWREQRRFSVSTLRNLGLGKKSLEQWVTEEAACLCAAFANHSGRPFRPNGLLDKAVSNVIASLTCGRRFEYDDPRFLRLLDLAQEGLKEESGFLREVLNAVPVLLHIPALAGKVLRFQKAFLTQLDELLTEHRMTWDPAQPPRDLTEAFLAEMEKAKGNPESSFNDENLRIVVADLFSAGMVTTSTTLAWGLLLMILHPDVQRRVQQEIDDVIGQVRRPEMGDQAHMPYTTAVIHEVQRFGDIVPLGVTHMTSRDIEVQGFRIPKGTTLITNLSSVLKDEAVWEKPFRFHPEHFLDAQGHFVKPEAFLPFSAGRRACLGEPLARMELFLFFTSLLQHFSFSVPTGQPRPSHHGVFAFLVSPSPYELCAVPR", "UniProt P33261, whole entry, looked up": "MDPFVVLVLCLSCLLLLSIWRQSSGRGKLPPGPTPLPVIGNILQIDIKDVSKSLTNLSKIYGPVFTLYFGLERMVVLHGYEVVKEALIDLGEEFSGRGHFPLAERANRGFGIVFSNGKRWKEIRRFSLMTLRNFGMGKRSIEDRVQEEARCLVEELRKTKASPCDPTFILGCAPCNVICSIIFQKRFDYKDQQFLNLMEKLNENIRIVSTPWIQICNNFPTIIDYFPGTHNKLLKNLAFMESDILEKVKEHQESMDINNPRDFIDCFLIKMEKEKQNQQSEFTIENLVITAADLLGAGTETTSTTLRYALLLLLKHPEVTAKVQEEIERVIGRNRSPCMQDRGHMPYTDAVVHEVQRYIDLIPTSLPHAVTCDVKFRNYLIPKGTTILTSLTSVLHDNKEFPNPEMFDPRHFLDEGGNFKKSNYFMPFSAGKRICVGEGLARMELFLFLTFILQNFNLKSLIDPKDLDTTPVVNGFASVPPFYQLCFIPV"}, "source": "PubChem BioAssay (Tox21)", "note": "“And” between values parts separate entries of the source, which are not always exact repeats. Equal values may be shown once. The shares of active, inactive and inconclusive entries below differ from those in the screen. Where the call is inconclusive, the potency comes from a doubtful curve fit. More than one record can exist for a structure, and the calls need not agree. The source made the active and inactive calls. The call rests on the fitted dose curve; in most records, active means well fitted curve in the direction sought with a large enough effect in the repeat runs; inconclusive means weak or mixed curves; inactive means no such curve, though single readings can be large; an effect the other way counts as inactive or inconclusive. Potency means the concentration at half of the fitted maximal effect."}
{"biological_target": "Nuclear receptor subfamily 1 group I member 2 (Homo sapiens) (UniProt O75469)", "assay": "Human pregnane X receptor (PXR) small molecule agonists, qHTS assay (AID 1346982); further: nearly all actives have a fitted effect of over 35% in size", "details": "PXR-Luc HepG2, CYP3A4 luciferase reporter, 24 h; series mostly up to 92.4 µM; activation: at the top concentration", "outline": "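Compound-induced hPXR transactivation of a CYP3A4 luciferase reporter was scored in HepG2 PXR-Luc cells over 24 hr at 37 C, 5% CO2, by luminescence.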"}
{"smiles": "O=C(CCl)c1ccccc1", "Potency": "inconclusive: 68.6 µM [activator, single point]"}
{"smiles": "CCCN(CCC)c1c([N+](=O)[O-])cc(C(C)C)cc1[N+](=O)[O-]", "Potency": "inconclusive: 19.3 µM [activator, partial curve]"}
{"smiles": "OC(c1ccc(Cl)cc1)(c1cncnc1)c1ccccc1Cl", "note": "(centres undefined)", "Potency": "active: 31.2 µM and active: 30.6 µM"}
{"smiles": "Oc1c(Br)cc(Br)cc1Br", "Potency": "active: 68.7 µM and active: 61.1 µM"}
{"smiles": "COC(=O)N(C(=O)N1CO[C@@]2(C(=O)OC)Cc3cc(Cl)ccc3C2=N1)c1ccc(OC(F)(F)F)cc1", "Potency": "active: 1.67 µM"}
{"smiles": "CC(=O)C(Cl)C(=O)N(C)C", "note": "(centres undefined)", "Potency": "inconclusive: 54.5 µM [activator, single point]"}
{"smiles": "Cc1ccccc1N", "Potency": "inconclusive: 69.8 µM [activator, partial curve, poor fit]"}
{"smiles": "CCN(CC)C(=O)SCc1ccc(Cl)cc1", "Potency": "inconclusive: 24.3 µM [activator, partial curve]"}
{"smiles": "COC(C)(C)CCCC(C)C/C=C/C(C)=C/C(=O)OC(C)C", "note": "(centres undefined)", "Potency": "inconclusive: 23.7 µM [activator, partial curve]"}
{"smiles": "Nc1ccc(N=Nc2ccc(-c3ccc(N=Nc4c(S(=O)(=O)O)cc5cc(S(=O)(=O)O)c(N=Nc6ccccc6)c(O)c5c4N)cc3)cc2)c(N)c1", "Potency": "inconclusive: 6.24 µM [activator, full curve, poor fit]"}
{"biological_target": "Nuclear receptor subfamily 1 group I member 2 (Homo sapiens) (UniProt O75469)", "assay": "Human pregnane X receptor (PXR) activation by small molecules, qHTS assay (AID 1346985); further: nearly all actives have a fitted effect of over 40% in size", "details": "DPX-2 HepG2 CYP3A4-luciferase, 24 h; series mostly up to 38.3 µM; activation: at the top concentration", "outline": "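DPX-2 cells (HepG2 co-transfected with a PXR response element and a CYP3A4-promoter luciferase construct) were seeded at 2,000 per well, rested 5 hr at 37C, then exposed to DMSO-dissolved compounds for 24 hr. Activation was read as luciferase luminescence.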"}
{"smiles": "CC(C)Nc1ccc(Nc2ccccc2)cc1", "Potency": "inconclusive: 15.8 µM [activator, partial curve, poor fit]"}
{"smiles": "C[C@H]1CCC[C@H](O)CCCCCc2cc(O)cc(O)c2C(=O)O1", "Potency": "active: 12.6 µM"}
{"smiles": "COC(C)(C)CCCC(C)C/C=C/C(C)=C/C(=O)OC(C)C", "note": "(centres undefined)", "Potency": "active: 11.2 µM"}
{"biological_target": "Cytochrome P450 2D6 (Homo sapiens) (UniProt P10635)", "assay": "Cytochrome P450 Family 2 Subfamily D Member 6 (CYP2D6) small molecule antagonists: luciferase reporter qHTS assay (AID 1671196); further: nearly all actives have a fitted effect of over 50% in size; on activity change, negative = inhibition: on the % scale 0 is the no-effect control and ±100 the full control effect", "details": "P450-Glo CYP2D6 enzyme assay, luciferin luminescence, 1 h; series mostly up to 115 µM; activity change, negative = inhibition: at the top concentration", "outline": "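Each well received CYP2D6 with its proluciferin substrate and chemical, sat 10 min, then got NADPH regeneration solution for 1 h at room temperature. Luminescence in RLU served as the activity measure.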"}
{"smiles": "CC1=C(C(=O)Nc2ccccc2)SCCO1", "Potency": "inconclusive: 72.1 µM [inhibitor] and inconclusive: 71 µM [inhibitor, partial curve]"}
{"smiles": "ClCc1ccccc1", "Potency": "inconclusive: 35.4 µM [inhibitor]"}
{"smiles": "c1cc2ccc3cccc4ccc(c1)c2c34", "Potency": "inconclusive: 29.6 µM [inhibitor, partial curve]"}
{"smiles": "CC(C)(C)C(O)C(Oc1ccc(-c2ccccc2)cc1)n1cncn1", "note": "(centres undefined)", "Potency": "inconclusive: 71 µM [inhibitor, partial curve]"}
{"smiles": "CC(Oc1ccc(Cl)cc1Cl)C(=O)O", "note": "(centres undefined)", "Potency": "inconclusive: 35.7 µM [inhibitor, partial curve]"}
{"smiles": "OC(c1ccc(Cl)cc1)(c1cncnc1)c1ccccc1Cl", "note": "(centres undefined)", "Potency": "active: 36.2 µM and active: 35.6 µM"}
{"smiles": "[Cl][Sb]([Cl])[Cl]", "activity change, negative = inhibition": "inactive: -24.9%"}
{"smiles": "C[C@H]1CCC[C@H](O)CCCCCc2cc(O)cc(O)c2C(=O)O1", "Potency": "inconclusive: 71.5 µM [inhibitor, partial curve]"}
{"smiles": "CC#C[C@]1(O)CC[C@H]2[C@@H]3C[C@H](C)C4=CC(=O)CC[C@]4(C)[C@H]3CC[C@@]21C", "activity change, negative = inhibition": "inactive: -16.1% [at 53 µM]"}
{"smiles": "O=S(=O)(c1ccc(Cl)cc1)c1ccc(Cl)cc1", "Potency": "inconclusive: 40.3 µM [inhibitor, partial curve]"}
{"smiles": "Oc1c(Br)cc(Br)cc1Br", "Potency": "inconclusive: 71 µM [inhibitor]"}
{"smiles": "C#C[C@]1(O)C=C[C@H]2[C@@H]3CCC4=CC(=O)CC[C@@H]4[C@H]3CC[C@@]21CC", "Potency": "inconclusive: 15.5 µM [inhibitor, partial curve]"}
{"smiles": "COC(=O)N(C(=O)N1CO[C@@]2(C(=O)OC)Cc3cc(Cl)ccc3C2=N1)c1ccc(OC(F)(F)F)cc1", "Potency": "inconclusive: 8.64 µM [inhibitor, full curve]"}
{"smiles": "CC(=O)C(Cl)C(=O)N(C)C", "note": "(centres undefined)", "Potency": "inconclusive: 50.2 µM [inhibitor]"}
{"smiles": "Cc1ccccc1N", "Potency": "inactive and active: 40.7 µM and inconclusive: 35.6 µM [inhibitor, partial curve]"}
{"smiles": "Nc1ccc(N=Nc2ccc(-c3ccc(N=Nc4c(S(=O)(=O)O)cc5cc(S(=O)(=O)O)c(N=Nc6ccccc6)c(O)c5c4N)cc3)cc2)c(N)c1", "Potency": "inconclusive: 18.2 µM [inhibitor, partial curve]"}
{"biological_target": "Cytochrome P450 2C19 (Homo sapiens) (UniProt P33261)", "assay": "Cytochrome P450 Family 2 Subfamily C Member 19 (CYP2C19) small molecule antagonists: luciferase reporter qHTS assay (AID 1671197); further: nearly all actives have a fitted effect of over 65% in size", "details": "P450-Glo CYP2C19 enzyme, luciferin luminescence, 1 h; series mostly up to 115 µM; activity change, negative = inhibition: at the top concentration", "outline": "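Inhibition of CYP2C19 was scored from loss of luminescence in a P450-Glo proluciferin substrate assay, NADPH-started and run 1 h at 37C, with ketoconazole as positive control.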"}
{"smiles": "ClCc1ccccc1", "Potency": "inconclusive: 88.8 µM [inhibitor, single point]"}
{"smiles": "c1cc2ccc3cccc4ccc(c1)c2c34", "Potency": "active: 16.7 µM"}
{"smiles": "CN(C)C1CSSSC1", "Potency": "active: 35.6 µM"}
{"smiles": "CCOc1cc(Oc2ccc(C(F)(F)F)cc2Cl)ccc1[N+](=O)[O-]", "Potency": "active: 5.7 µM and active: 7.1 µM"}
{"smiles": "CC(C)(C)C(O)C(Oc1ccc(-c2ccccc2)cc1)n1cncn1", "note": "(centres undefined)", "Potency": "inconclusive: 89.4 µM [inhibitor, single point]"}
{"smiles": "CC(Oc1ccc(Cl)cc1Cl)C(=O)O", "note": "(centres undefined)", "Potency": "inconclusive: 79.6 µM [inhibitor, single point]"}
{"smiles": "O=C(CCl)c1ccccc1", "Potency": "active: 57.2 µM and inconclusive: 89.4 µM [inhibitor, single point]"}
{"smiles": "Oc1c(Br)cc(Br)cc1Br", "Potency": "inconclusive: 89.6 µM [inhibitor, single point]"}
{"smiles": "C#C[C@]1(O)C=C[C@H]2[C@@H]3CCC4=CC(=O)CC[C@@H]4[C@H]3CC[C@@]21CC", "Potency": "active: 2.75 µM"}
{"smiles": "COC(C)(C)CCCC(C)C/C=C/C(C)=C/C(=O)OC(C)C", "note": "(centres undefined)", "Potency": "inconclusive: 87.9 µM [inhibitor, single point]"}
